# Test results as given in the supplement of paper PMC4604168 (melanoma cell lines).
# The other results are listed elsewhere or left out. Repeats are few or missing, and single values can be far off.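 The apoptosis fraction was the count of cleaved-PARP antibody-stained nuclei relative to all DNA-stained nuclei, imaged in 1,536-well plates. Screening doses were set so most cells survived, and baseline and induced cleaved-PARP levels vary greatly across cell lines.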
# Test system: WM1745
# Assay: cleaved PARP positive nuclei fraction relative to DMSO control; melanoma cells; higher = more apoptosis
# Settings: library dose: low library concentration; 72 h
row,Compound,cleaved PARP positive nuclei fraction [%]
1,"N.N.[Cl][Pt][Cl] [cisplatin] + COc1cc2ncnc(Nc3ccc(Oc4ccccc4)cc3)c2cc1OC [SrcI1] (first compound 1.6 µM, partner dose 2 µM)",103
2,"O=c1[nH]nc(Sc2ncc([N+](=O)[O-])s2)n1-c1ccc2c(c1)OCCO2 + O=C(Oc1ccc([N+](=O)[O-])cc1)N1CCC(C(O)(c2ccc3c(c2)OCO3)c2ccc3c(c2)OCO3)CC1 [JZL184] (first compound 0.2 µM, partner dose 1 µM)",93.7
3,"N.N.[Cl][Pt][Cl] [cisplatin] + O=C(O)c1ccc(-c2c[nH]c3ncc(-c4ccccc4)cc23)cc1C1CCCC1 [GSK650394] (first compound 1.6 µM, partner dose 0.16 µM)",91.1
4,"Cn1cc(C2=C(c3cn(C4CCN(Cc5ccccn5)CC4)c4ccccc34)C(=O)NC2=O)c2ccccc21 [Enzastaurin] + CNC(=O)c1cc(Oc2ccc(NC(=O)Nc3ccc(Cl)c(C(F)(F)F)c3)cc2)ccn1 [sorafenib] (first compound 0.8 µM, partner dose 0.4 µM)",96.9
5,"O=c1[nH]nc(Sc2ncc([N+](=O)[O-])s2)n1-c1ccc2c(c1)OCCO2 + C[As](C)SC[C@H](NC(=O)CC[C@H](N)C(=O)O)C(=O)NCC(=O)O [Darinaparsin] (first compound 0.2 µM, partner dose 0.4 µM)",205
6,"N#CC[C@H](C1CCCC1)n1cc(-c2ncnc3[nH]ccc23)cn1 [ruxolitinib] + Cn1cc(C2=C(c3cn(C4CCN(Cc5ccccn5)CC4)c4ccccc34)C(=O)NC2=O)c2ccccc21 [Enzastaurin] (first compound 1 µM, partner dose 0.8 µM)",104
7,"Cc1cn(-c2cc(NC(=O)c3ccc(C)c(Nc4nccc(-c5cccnc5)n4)c3)cc(C(F)(F)F)c2)cn1 [nilotinib] + C/C(O)=C(\C#N)C(=O)Nc1cc(Br)ccc1Br [LFM-A13] (first compound 0.2 µM, partner dose 2 µM)",87.4
8,"C[As](C)SC[C@H](NC(=O)CC[C@H](N)C(=O)O)C(=O)NCC(=O)O [Darinaparsin] + Cc1cc(N2CCOCC2)cc2[nH]c(-c3c(NC[C@@H](O)c4cccc(Cl)c4)cc[nH]c3=O)nc12 [BMS536924] (first compound 0.4 µM, partner dose 0.2 µM)",109
9,"N.N.[Cl][Pt][Cl] [cisplatin] + Nc1ccn([C@@H]2O[C@H](CO)[C@@H](O)C2(F)F)c(=O)n1 [gemcitabine] (first compound 1.6 µM, partner dose 0.0004 µM)",92.9
10,"CC(C)C[C@H](NC(=O)[C@H](Cc1ccccc1)NC(=O)c1cnccn1)B(O)O [Bortezomib] + O=C(Oc1ccc([N+](=O)[O-])cc1)N1CCC(C(O)(c2ccc3c(c2)OCO3)c2ccc3c(c2)OCO3)CC1 [JZL184] (first compound 0.001 µM, partner dose 1 µM)",437
11,"Cc1cc([N+](=O)[O-])ccc1NS(=O)(=O)c1cc(Cl)ccc1Cl + O=C(Oc1ccc([N+](=O)[O-])cc1)N1CCC(C(O)(c2ccc3c(c2)OCO3)c2ccc3c(c2)OCO3)CC1 [JZL184] (first compound 1 µM, partner dose 1 µM)",111
12,"C[C@]12O[C@H](C[C@]1(O)CO)n1c3ccccc3c3c4c(c5c6ccccc6n2c5c31)CNC4=O [Lestaurtinib] + NC(=O)Nc1cc(-c2cccc(F)c2)sc1C(=O)N[C@H]1CCCNC1 [AZD7762] (first compound 0.004 µM, partner dose 0.02 µM)",110
13,"Cn1cc(C2=C(c3cn(C4CCN(Cc5ccccn5)CC4)c4ccccc34)C(=O)NC2=O)c2ccccc21 [Enzastaurin] + CO[C@H]1C[C@@H]2CC[C@@H](C)[C@@](O)(O2)C(=O)C(=O)N2CCCC[C@H]2C(=O)O[C@H]([C@H](C)C[C@@H]2CC[C@@H](OCCO)[C@H](OC)C2)CC(=O)[C@H](C)/C=C(\C)[C@@H](O)[C@@H](OC)C(=O)[C@H](C)C[C@H](C)/C=C/C=C/C=C/1C [everolimus] (first compound 0.8 µM, partner dose 0.02 µM)",105
14,"Cn1cc(C2=C(c3cn(C4CCN(Cc5ccccn5)CC4)c4ccccc34)C(=O)NC2=O)c2ccccc21 [Enzastaurin] + CC(C)(C)c1cnc(CSc2cnc(NC(=O)C3CCNCC3)s2)o1 [SNS-032] (first compound 0.8 µM, partner dose 0.01 µM)",112
15,"C[C@@H](Oc1cc(-c2cnn(C3CCNCC3)c2)cnc1N)c1c(Cl)ccc(F)c1Cl [Crizotinib] + C[As](C)SC[C@H](NC(=O)CC[C@H](N)C(=O)O)C(=O)NCC(=O)O [Darinaparsin] (first compound 0.2 µM, partner dose 0.4 µM)",86.7
16,"C[C@]12O[C@H](C[C@]1(O)CO)n1c3ccccc3c3c4c(c5c6ccccc6n2c5c31)CNC4=O [Lestaurtinib] + C[C@]1(c2nc3c(C(N)=O)cccc3[nH]2)CCCN1 [Veliparib] (first compound 0.004 µM, partner dose 1.4 µM)",109
17,"CS(=O)(=O)CCNCc1ccc(-c2ccc3ncnc(Nc4ccc(OCc5cccc(F)c5)c(Cl)c4)c3c2)o1 [lapatinib] + Cc1cc(SCc2sc(-c3ccc(C(F)(F)F)c(F)c3)nc2C)ccc1OCC(=O)O [GW0742] (first compound 0.8 µM, partner dose 2 µM)",96.8
18,"C[C@]12O[C@H](C[C@]1(O)CO)n1c3ccccc3c3c4c(c5c6ccccc6n2c5c31)CNC4=O [Lestaurtinib] + Nc1ccn([C@@H]2O[C@H](CO)[C@@H](O)C2(F)F)c(=O)n1 [gemcitabine] (first compound 0.004 µM, partner dose 0.0004 µM)",146

# In a second layout: entries from further up
row | Compound | cleaved PARP positive nuclei fraction [%]
7 | Cc1cn(-c2cc(NC(=O)c3ccc(C)c(Nc4nccc(-c5cccnc5)n4)c3)cc(C(F)(F)F)c2)cn1 [nilotinib] + C/C(O)=C(\C#N)C(=O)Nc1cc(Br)ccc1Br [LFM-A13] (first compound 0.2 µM, partner dose 2 µM) | 87.4
12 | C[C@]12O[C@H](C[C@]1(O)CO)n1c3ccccc3c3c4c(c5c6ccccc6n2c5c31)CNC4=O [Lestaurtinib] + NC(=O)Nc1cc(-c2cccc(F)c2)sc1C(=O)N[C@H]1CCCNC1 [AZD7762] (first compound 0.004 µM, partner dose 0.02 µM) | 110
16 | C[C@]12O[C@H](C[C@]1(O)CO)n1c3ccccc3c3c4c(c5c6ccccc6n2c5c31)CNC4=O [Lestaurtinib] + C[C@]1(c2nc3c(C(N)=O)cccc3[nH]2)CCCN1 [Veliparib] (first compound 0.004 µM, partner dose 1.4 µM) | 109
